Some of the results follow.
How the values were obtained:
Test in all cases: glycan array binding signal (z-score within array); higher = stronger binding
Conditions in all cases: glycan notation: IUPAC condensed, linker removed
Gal3S4S(b1-4)GlcNAc = biological target: Gal3S4S(b1-4)GlcNAc
In short: (§1)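 From the Consortium for Functional Glycomics database, 3228 arrays were curated, keeping only those whose protein sequence was available. Binding is given as a within-array Z-score averaged across arrays sharing a protein sequence and across linkers. Negative Z-scores can be read as non-binding.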

Gal3S6S(b1-4)GlcNAc = biological target: Gal3S6S(b1-4)GlcNAc
In short: as §1

Gal3S6S(b1-4)GlcNAc6S = biological target: Gal3S6S(b1-4)GlcNAc6S
In short: as §1

Gal4S(b1-4)GlcNAc = biological target: Gal4S(b1-4)GlcNAc
In short: as §1

Gal4S6S(b1-4)GlcNAc = biological target: Gal4S6S(b1-4)GlcNAc
In short: as §1

Gal6S(b1-3)GlcNAc = biological target: Gal6S(b1-3)GlcNAc
In short: as §1

Gal6S(b1-3)GlcNAc6S = biological target: Gal6S(b1-3)GlcNAc6S
In short: as §1

Gal6S(b1-4)Glc = biological target: Gal6S(b1-4)Glc
In short: as §1

Gal6S(b1-4)Glc6S = biological target: Gal6S(b1-4)Glc6S
In short: as §1

Gal6S(b1-4)GlcNAc = biological target: Gal6S(b1-4)GlcNAc
In short: as §1

Gal6S(b1-4)GlcNAc6S = biological target: Gal6S(b1-4)GlcNAc6S
In short: as §1

GalNAc(a1-3)Gal = biological target: GalNAc(a1-3)Gal
In short: as §1

GalNAc(a1-3)GalNAc = biological target: GalNAc(a1-3)GalNAc
In short: as §1

[1] = biological target: GalNAc(a1-3)GalNAc(b1-3)Gal(a1-4)Gal(b1-4)Glc
In short: as §1

[2] = biological target: GalNAc(a1-3)GalNAc(b1-3)Gal(a1-4)Gal(b1-4)GlcNAc
In short: as §1

GalNAc(b1-3)Gal = biological target: GalNAc(b1-3)Gal
In short: as §1

[3] = biological target: GalNAc(b1-3)Gal(a1-4)Gal(b1-4)GlcNAc
In short: as §1

[4] = biological target: GalNAc(b1-3)Gal(a1-4)Gal(b1-4)GlcNAc(b1-3)Gal(b1-4)Glc
In short: as §1

[5] = biological target: GalNAc(b1-3)Gal(a1-6)Gal(b1-4)Glc
In short: as §1

GalNAc(b1-3)GalNAc = biological target: GalNAc(b1-3)GalNAc
In short: as §1

GalNAc(b1-4)Gal(b1-4)Glc = biological target: GalNAc(b1-4)Gal(b1-4)Glc
In short: as §1

GalNAc(b1-4)GlcNAc = biological target: GalNAc(b1-4)GlcNAc
In short: as §1

[6] = biological target: GalNAc(b1-4)GlcNAc(b1-2)Man(a1-3)[GalNAc(b1-4)GlcNAc(b1-2)Man(a1-6)]Man(b1-4)GlcNAc(b1-4)GlcNAc
In short: as §1

GalNAc(b1-6)GalNAc = biological target: GalNAc(b1-6)GalNAc
In short: as §1

Glc(a1-4)Glc = biological target: Glc(a1-4)Glc
In short: as §1

[7] = biological target: Glc(a1-4)Glc(a1-4)Glc(a1-4)Glc
In short: as §1

Glc(a1-6)Glc(a1-6)Glc = biological target: Glc(a1-6)Glc(a1-6)Glc
In short: as §1

[8] = biological target: Glc(a1-6)Glc(a1-6)Glc(a1-6)Glc
In short: as §1

Glc(b1-4)Glc = biological target: Glc(b1-4)Glc
In short: as §1

Glc(b1-6)Glc = biological target: Glc(b1-6)Glc
In short: as §1

GlcA(b1-3)Gal = biological target: GlcA(b1-3)Gal
In short: as §1

GlcA(b1-3)GlcNAc = biological target: GlcA(b1-3)GlcNAc
In short: as §1

GlcA(b1-6)Gal = biological target: GlcA(b1-6)Gal
In short: as §1

[9] = biological target: GlcNAc(a1-3)Gal(b1-4)GlcNAc
In short: as §1

[10] = biological target: GlcNAc(a1-4)Gal(b1-3)GlcNAc
In short: as §1

[11] = biological target: GlcNAc(a1-4)Gal(b1-4)GalNAc
In short: as §1

[12] = biological target: GlcNAc(a1-4)Gal(b1-4)GlcNAc
In short: as §1

[13] = biological target: GlcNAc(a1-4)Gal(b1-4)GlcNAc(b1-3)Gal(b1-4)Glc
In short: as §1

B1: Intelectin 1 (Homo sapiens), Q8WWA0 (protein)
chain: MNQLSFLLFLIATTRGWSTDEANTYFKEWTCSSSPSLPRSCKEIKDECPSAFDGLYFLRTENGVIYQTFCDMTSGGGGWTLVASVHENDMRGKCTVGDRWSSQQGSKAVYPEGDGNWANYNTFGSAEAATSDDYKNPGYYDIQAKDLGIWHVPNKSPMQHWRNSSLLRYRTDTGFLQTLGHNLFGIYQKYPVKYGEGKCWTDNGPVIPVVYDFGDAQKTASYYSPYGQREFTAGFVQFRVFNNERAANALCAGMRVTGCNTEHHCIGGGGYFPEASPQQCGDFSGFDWSGYGTHVGYSSSREITEAAVLLFYR
What does the source list for B1?
glycan array binding signal (z-score) (Gal3S4S(b1-4)GlcNAc): -0.194; glycan array binding signal (z-score) (Gal3S6S(b1-4)GlcNAc): -1.23; glycan array binding signal (z-score) (Gal3S6S(b1-4)GlcNAc6S): -0.36; glycan array binding signal (z-score) (Gal4S(b1-4)GlcNAc): 0.07; glycan array binding signal (z-score) (Gal4S6S(b1-4)GlcNAc): -0.783; glycan array binding signal (z-score) (Gal6S(b1-3)GlcNAc): 0.867; glycan array binding signal (z-score) (Gal6S(b1-3)GlcNAc6S): 1.05; glycan array binding signal (z-score) (Gal6S(b1-4)Glc): -0.449; glycan array binding signal (z-score) (Gal6S(b1-4)Glc6S): -0.149; glycan array binding signal (z-score) (Gal6S(b1-4)GlcNAc): -0.102; glycan array binding signal (z-score) (Gal6S(b1-4)GlcNAc6S): 1.22; glycan array binding signal (z-score) (GalNAc(a1-3)Gal): 0.035; glycan array binding signal (z-score) (GalNAc(a1-3)GalNAc): -0.766; glycan array binding signal (z-score) [1]: -0.596; glycan array binding signal (z-score) [2]: -0.039; glycan array binding signal (z-score) (GalNAc(b1-3)Gal): 2.09; glycan array binding signal (z-score) [3]: -0.635; glycan array binding signal (z-score) [4]: -0.703; glycan array binding signal (z-score) [5]: -0.442; glycan array binding signal (z-score) (GalNAc(b1-3)GalNAc): -0.802; glycan array binding signal (z-score) (GalNAc(b1-4)Gal(b1-4)Glc): 0.205; glycan array binding signal (z-score) (GalNAc(b1-4)GlcNAc): -0.182; glycan array binding signal (z-score) [6]: 0.358; glycan array binding signal (z-score) (GalNAc(b1-6)GalNAc): 0.608; glycan array binding signal (z-score) (Glc(a1-4)Glc): -0.436; glycan array binding signal (z-score) [7]: 0.146; glycan array binding signal (z-score) (Glc(a1-6)Glc(a1-6)Glc): 0.027; glycan array binding signal (z-score) [8]: 0.434; glycan array binding signal (z-score) (Glc(b1-4)Glc): -0.617; glycan array binding signal (z-score) (Glc(b1-6)Glc): -0.722; glycan array binding signal (z-score) (GlcA(b1-3)Gal): -0.051; glycan array binding signal (z-score) (GlcA(b1-3)GlcNAc): 0.367; glycan array binding signal (z-score) (GlcA(b1-6)Gal): -0.654; glycan array binding signal (z-score) [9]: -0.18; glycan array binding signal (z-score) [10]: -1.27; glycan array binding signal (z-score) [11]: -0.567; glycan array binding signal (z-score) [12]: 0.206; glycan array binding signal (z-score) [13]: -0.339

— the supplement of paper PMC8728848
